Article PMC12040169 (PLOS Biology, 2025)
The other results are listed elsewhere or left out.

What follows are molecules tested on T1, CTL2-GFP (C. trachomatis L2/434/Bu, GFP-expressing). Details: bulk GFP, single well; 28.5 h, 10 µM; inhibitor.
T1 construct: L2/434/Bu, GFP-expressing
Set-up: species or system HeLa; Intracellular C. trachomatis growth in HeLa cells, bulk GFP fluorescence relative to DMSO

| SMILES | % of control remaining |
| --- | --- |
| Cc1cc(=O)n(CC(=O)N2CCC3(CCCN(C(C)C)C3=O)C2)nc1C (stereo not drawn) [CBK307482] | 113.599% |
| NC(=O)C(=O)c1c(-c2ccccc2)cc2ccccn12 [CBK288466] | 121.602% |
| Cc1ccc(-c2nc(C3CCCN(C(=O)NC4CCCCC4)C3)n3ccccc23)cc1 (stereo not drawn) [CBK047241] | 88.3827% |
| CC(C)n1c(NCc2nc3ccccc3n2C)nc2ccccc21 [CBK265571] | 120.134% |
| COC(=O)c1c(NC(=S)Nc2ccc(Br)cn2)sc2c1CCC(C)C2 (stereo not drawn) [CBK266962] | 145.383% |
| Nc1cc2ccccc2c(-c2cccc(C(F)(F)F)c2)n1 [CBK085721] | 96.9189% |
| O=C(CSc1nc(-c2ccco2)cc(C(F)(F)F)n1)Nc1ccc(C(=O)N2CCCCC2)cc1 [CBK266238] | 127.714% |
| O=C(NCCc1ccc(Cl)cc1)C1CCN(C(=O)c2ccc3nsnc3c2)C1 (stereo not drawn) [CBK285553] | 113.397% |
| COC(=O)Nc1nc2cc(F)c(Cl)cc2[nH]1 [CBK026927] | 135.263% |
| c1coc(-c2nc3cnccn3c2NC2CCCC2)c1 [CBK283678] | 157.163% |
| Cc1cc(I)ccc1NC(=O)CCC(=O)N/N=C/c1ccco1 [CBK261991] | 107.583% |
| CC(Oc1cccc(F)c1)C(=O)N(C)Cc1cccnc1 (stereo not drawn) [CBK304841] | 150.755% |
| Cc1ccc(S(=O)(=O)N2C[C@H]3C[C@H](NC(=O)C4CC4C)[C@H]3C2)cc1 (stereo partly drawn) [CBK285318] | 105.618% |
| CC(C)CC(=O)N1CCCn2nc(-c3ccncc3)cc2C1 [CBK288606] | 109.034% |
| CN1CCN(CCC(=O)Nc2ccc(Cl)c(C(F)(F)F)c2)CC1 [CBK265995] | 101.283% |
| Cn1ncc(N2CCC(CNC(=O)COc3ccccc3)C2)cc1=O (stereo not drawn) [CBK306810] | 137.216% |
| c1ccc(C(CCN2CCC[C@@H]2CN2CCCC2)c2ccccc2)cc1 [CBK149109] | 151.018% |
| COc1cccc(C(=O)N2CCC(Cc3ccc(-c4ccccc4)cc3)(C(N)=O)CC2)c1 [CBK285770] | 109.112% |
| COc1cc(/C=C/C(=O)NCc2ccccn2)cc(OC)c1OC [CBK264752] | 131.455% |
| COc1ccc(C(NC(=O)CC2CCN(c3nc(C)cc(C)n3)CC2)C2CC2)cc1 (stereo not drawn) [CBK285994] | 118.763% |
| C#CCN(C1CCc2ccccc21)S(=O)(=O)c1cc(C(=O)NC)n(C)c1 (stereo not drawn) [CBK306235] | 99.332% |
| CC(=O)c1cccc(NC(=O)N(Cc2ccco2)CC2CCCO2)c1 (stereo not drawn) [CBK304467] | 112.651% |
| C(=N\N=C\c1ccccn1)/c1ccccn1 [CBK015627] | 148.419% |
| O=S(=O)(NCCSc1ccccn1)c1ccc(Br)cc1 [CBK264001] | 100% |
| O=C(NCc1ccccn1)c1cc2cc(Cl)ccc2[nH]1 [CBK107265] | 101.451% |
| COc1cc(CN2CCC(C)CC2)c([N+](=O)[O-])cc1OC [CBK261911] | 100% |

| SMILES | % of control remaining |
| --- | --- |
| COC(=O)C1CCN(Cc2nc3sc4c(c3c(=O)[nH]2)CCC(C)C4)CC1 (stereo not drawn) [CBK304978] | 79.1308% |
| Cc1nn(C)c(C)c1CCC(=O)NCC(C)Oc1ccccc1F (stereo not drawn) [CBK305194] | 112.056% |
| CC(C)C(=O)Nc1cc2ccccc2c(-c2ccc(N(C)C)cc2)n1 [CBK085776] | 125.282% |
| Cc1noc(C)c1CC(=O)NC(C)c1nc2ccccc2s1 (stereo not drawn) [CBK281467] | 86.0319% |
| CN(CCNC(=O)Nc1ccc2c(c1)oc(=O)n2C)C1CCCC1 [CBK305503] | 101.389% |
| Cc1cc(OCC(=O)NCCCN2CCOCC2)cc(C)c1Br [CBK265082] | 100% |
| CCOC(=O)c1ccccc1NC(=O)N(Cc1ccc2ccccc2c1)CC1CCNCC1 [CBK049769] | 88.3226% |
| Cc1cccc(C)c1NC(=O)CCC(=O)OCc1ccccc1 [CBK267158] | 158.682% |
| CCC(CO)Nc1cncc(-c2cccs2)n1 (stereo not drawn) [CBK065534] | 81.64% |
| CC(C)(CC(=O)Nc1sc2c(c1C(=O)O)CCC2)CC(=O)Nc1sc2c(c1C(=O)O)CCC2 [CBK296100] | 154.198% |
| Nc1ncc(-c2cncnc2)nc1N1CCOCC1 [CBK063422] | 74.3141% |
| O=C(c1cc(F)c(F)cc1F)N1CCC2(CCCN(Cc3cc(=O)[nH]c(=O)[nH]3)C2)C1 (stereo not drawn) [CBK132010] | 96.9221% |
| CCOC(=O)c1ccc(S(=O)(=O)Nc2cc(C(=O)O)ccc2F)cc1 [CBK295308] | 180.291% |
| C=CCSc1nc2sc3c(c2c(=O)[nH]1)CCCC3 [CBK287344] | 103.287% |
| COc1ccc(Cl)cc1S(=O)(=O)NC(C)C(=O)O (stereo not drawn) [CBK270233] | 110.789% |
| CCCCC12CN3CC(C)(CN(C1)C31C(=O)Nc3ccc(Br)cc31)C2=O (stereo not drawn) [CBK267348] | 139.463% |
| O=C(O)CCCCCN1C(=O)/C(=C/c2ccc(O)c(O)c2)SC1=S [CBK262771] | 100% |
| NS(=O)(=O)c1ccc(S(=O)(=O)NCCc2c[nH]c3ccccc23)cc1 [CBK266691] | 176.584% |
| CCCc1[nH]ncc1C(=O)N1CCN(c2ccnc(N(C)C)n2)CC1 [CBK305406] | 78.6633% |
| CS(=O)(=O)N(Cc1ccccc1)c1ccc(C(=O)Nc2ccc(-c3ccccc3)cc2)cc1 [CBK262754] | 127.222% |
| Cc1occc1C(=O)NC(C)c1ccc2c(c1)OCO2 (stereo not drawn) [CBK268153] | 107.472% |
| COc1ccc(CC(=O)Nc2ccc(-c3nnc(-c4ccccc4)o3)cc2)cc1OC [CBK267414] | 136.651% |
| COc1ccc2c(c1)c(C(NCc1cccc(C(F)(F)F)c1)C(N)=O)nn2Cc1ccccc1 (stereo not drawn) [CBK010715] | 118.092% |
| O=C(CN1C(=O)N2CCN=C2c2ccccc21)NC1CC1 [CBK283958] | 138.149% |
| COc1ccc2c(c1)OC1(CCN(CC(O)c3ccc(-c4ccccc4)cc3)CC1)CC2O (stereo not drawn) [CBK286346] | 131.014% |

Some of the entries so far, as labelled records.
COc1ccc(Cl)cc1S(=O)(=O)NC(C)C(=O)O (stereo not drawn) [CBK270233]
  % of control remaining: 110.789%
O=C(O)CCCCCN1C(=O)/C(=C/c2ccc(O)c(O)c2)SC1=S [CBK262771]
  % of control remaining: 100%
